No constants are given. Whether binding was seen depends on the method and setting. In cells and extracts the contact can be indirect. Some results given as binding are weak or reduced against the parent protein; the word gives no strength.
Molecular target: ITCH (human (endogenous in primary ectopic endometrial stromal cells)) (UniProt Q96J02)
Assay: co-IP; lysates of ectopic ESCs in RIPA lysis buffer, incubated with anti-ITCH, anti-ITGB3 or control IgG overnight at 4 °C, protein A/G Plus agarose beads 2 h at 4 °C, washed three times in lysis buffer, Western blot

Amino acid sequences for entries named in this document (tags omitted). Residues count along the entry.
UniProt Q96J02: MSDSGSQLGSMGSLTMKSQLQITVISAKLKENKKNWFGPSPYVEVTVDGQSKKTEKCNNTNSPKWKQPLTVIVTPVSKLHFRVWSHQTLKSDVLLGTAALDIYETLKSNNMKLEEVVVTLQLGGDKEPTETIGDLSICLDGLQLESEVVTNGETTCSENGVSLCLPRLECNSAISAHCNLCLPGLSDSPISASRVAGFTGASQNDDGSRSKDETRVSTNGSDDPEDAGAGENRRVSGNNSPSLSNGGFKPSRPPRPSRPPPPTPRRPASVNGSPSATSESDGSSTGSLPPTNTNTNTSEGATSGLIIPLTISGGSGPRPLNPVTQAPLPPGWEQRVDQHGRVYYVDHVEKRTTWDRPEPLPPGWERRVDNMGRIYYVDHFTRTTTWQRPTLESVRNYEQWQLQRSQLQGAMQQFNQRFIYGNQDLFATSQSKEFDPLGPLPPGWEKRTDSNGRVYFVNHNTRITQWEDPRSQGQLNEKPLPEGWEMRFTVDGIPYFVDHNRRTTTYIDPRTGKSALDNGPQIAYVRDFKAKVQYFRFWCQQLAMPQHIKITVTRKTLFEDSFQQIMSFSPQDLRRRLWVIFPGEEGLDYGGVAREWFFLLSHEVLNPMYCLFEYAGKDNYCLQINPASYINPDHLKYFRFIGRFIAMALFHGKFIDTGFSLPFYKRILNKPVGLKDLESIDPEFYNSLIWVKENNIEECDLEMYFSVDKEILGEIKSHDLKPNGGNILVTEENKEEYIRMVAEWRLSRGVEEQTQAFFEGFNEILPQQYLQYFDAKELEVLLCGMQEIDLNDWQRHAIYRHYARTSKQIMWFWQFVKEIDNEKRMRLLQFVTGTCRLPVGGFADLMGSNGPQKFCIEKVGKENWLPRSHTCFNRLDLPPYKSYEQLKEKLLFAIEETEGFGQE
UniProt P05106, residues 27-788: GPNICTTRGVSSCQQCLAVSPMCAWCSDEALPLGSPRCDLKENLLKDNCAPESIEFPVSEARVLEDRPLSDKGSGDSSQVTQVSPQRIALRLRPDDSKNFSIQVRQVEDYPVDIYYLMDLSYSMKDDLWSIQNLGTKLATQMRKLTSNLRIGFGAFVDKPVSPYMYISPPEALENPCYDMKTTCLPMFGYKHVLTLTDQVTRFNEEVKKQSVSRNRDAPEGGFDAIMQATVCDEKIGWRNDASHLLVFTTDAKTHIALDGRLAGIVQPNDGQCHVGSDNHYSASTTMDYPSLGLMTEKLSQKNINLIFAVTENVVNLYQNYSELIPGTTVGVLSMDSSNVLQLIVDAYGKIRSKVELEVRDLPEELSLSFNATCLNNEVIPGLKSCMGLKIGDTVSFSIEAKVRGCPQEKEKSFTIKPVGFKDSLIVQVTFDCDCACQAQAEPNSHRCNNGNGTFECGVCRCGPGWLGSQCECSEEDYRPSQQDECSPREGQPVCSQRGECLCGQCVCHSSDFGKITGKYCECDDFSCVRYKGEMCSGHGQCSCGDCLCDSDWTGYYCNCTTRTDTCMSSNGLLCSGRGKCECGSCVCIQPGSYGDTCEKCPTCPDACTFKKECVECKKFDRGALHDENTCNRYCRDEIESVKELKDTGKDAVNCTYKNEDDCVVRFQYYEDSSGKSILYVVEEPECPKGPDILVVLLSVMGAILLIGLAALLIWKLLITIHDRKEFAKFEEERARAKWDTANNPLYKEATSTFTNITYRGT

binding: binds
Substance: Integrin β3 (ITGB3) (from UniProt P05106 27-788) (receptor)

Source: article PMC10526369
